Values quoted from earlier work as cited in patent US20150159141A1, “ISOLATED HUMAN LIVER TUMOR CELL LINE AND METHOD OF AGENT SCREENING” (Industrial Technology Research Institute, priority 2013, published 2015).
Some of these results come from one statement about several compounds together.

Tested on: liver cancer
Conditions: traditional chemotherapy; cited from earlier work

**Q.** Which “response rate of liver cancer” value does the source give for `COc1cccc2c1C(=O)c1c(O)c3c(c(O)c1C2=O)C[C@@](O)(C(=O)CO)C[C@@H]3O[C@H]1C[C@H](N)[C@H](O)[C@H](C)O1` [doxorubicin] here?
**A.** less than 20%
